Measurements published in patent US20160002338A1 (Hoffmann-La Roche, published 2016).
No constants are given. Whether binding was seen depends on the method and setting. Some results given as binding are weak or reduced against the parent protein; the word gives no strength.

Target: T1, TtSlyD-FKBP-Her3
T1 sequence: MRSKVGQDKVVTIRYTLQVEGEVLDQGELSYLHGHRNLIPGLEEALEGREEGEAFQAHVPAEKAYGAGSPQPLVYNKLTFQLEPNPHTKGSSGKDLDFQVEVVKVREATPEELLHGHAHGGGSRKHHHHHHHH
Assay: SPR kinetic screening

B1: anti-HER3/HER4 antibody M-05-74 (antibody, V domains shown)
VH: QVQLQQSGAELAKPGASVKMSCKTSGYTLTDYWIHWVKQRPGQGLEWIGYINPYTGYTESNQKFKDKATLTADKSSNTAYIQLSSLTSEDSAVYYCARPYYYGDYWGQGTTLTVSS
VL: QIVLTQSPAIMSASPGERVTITCSASSSVSYMHWFQQKPGTSPKLLIYSTSNLASGVPARFSGSGSGTSYSLTISRMEAEDAATYYCQQRSSYPFTFGSGTKLEIK
notes: murine monoclonal antibody from hybridoma (supernatant or purified); also called M-074; M-5-74
With B1 as the binder, how does the binding read?
Its binding is “binds”.
